Among all 580,000 compounds or so, about 6,100 (1.1%) were called active. Inconclusive means that the source gave no clear call. Such entries were picked first, then a sample of the others. Calls follow the shape of the dose curve; as a rule, active = well fitted inhibition curve with a large enough effect; inconclusive = small, poorly fitted or top-dose-only effect, or another doubt; inactive = no such curve, though single readings can be large or run the other way. Potencies beside an inconclusive call are fits to weak or partial responses and may not hold up.
target: Polyunsaturated fatty acid lipoxygenase ALOX12 (Homo sapiens) (UniProt P18054); experiment: Primary qHTS assay for inhibitors of human arachidonate 12S-lipoxygenase (ALOX12): Round 2; conditions: purified 12hLO, xylenol orange hydroperoxide absorbance; activity change, negative = inhibition: at 108 µM (top of the series) unless noted
Procedure, shortened: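 Hydroperoxide product was detected by ferrous iron/xylenol orange as the 573 to 405 nm absorbance ratio. Arachidonic acid at 40 uM (final) was turned over for 30 min at room temperature by 150 nM human 12hLO, pH 7.0 Hepes buffer, after 15 min compound preincubation.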
% is scaled to controls: 0 for no effect and ±100 for the full control effect; potency is read from the fitted curve at half-maximal effect.

By UniProt entry, the sequences of proteins in these tests, tags left out. Where a name states a change or a piece, a line headed by the entry shows the natural chain unless it says otherwise.
UniProt P18054: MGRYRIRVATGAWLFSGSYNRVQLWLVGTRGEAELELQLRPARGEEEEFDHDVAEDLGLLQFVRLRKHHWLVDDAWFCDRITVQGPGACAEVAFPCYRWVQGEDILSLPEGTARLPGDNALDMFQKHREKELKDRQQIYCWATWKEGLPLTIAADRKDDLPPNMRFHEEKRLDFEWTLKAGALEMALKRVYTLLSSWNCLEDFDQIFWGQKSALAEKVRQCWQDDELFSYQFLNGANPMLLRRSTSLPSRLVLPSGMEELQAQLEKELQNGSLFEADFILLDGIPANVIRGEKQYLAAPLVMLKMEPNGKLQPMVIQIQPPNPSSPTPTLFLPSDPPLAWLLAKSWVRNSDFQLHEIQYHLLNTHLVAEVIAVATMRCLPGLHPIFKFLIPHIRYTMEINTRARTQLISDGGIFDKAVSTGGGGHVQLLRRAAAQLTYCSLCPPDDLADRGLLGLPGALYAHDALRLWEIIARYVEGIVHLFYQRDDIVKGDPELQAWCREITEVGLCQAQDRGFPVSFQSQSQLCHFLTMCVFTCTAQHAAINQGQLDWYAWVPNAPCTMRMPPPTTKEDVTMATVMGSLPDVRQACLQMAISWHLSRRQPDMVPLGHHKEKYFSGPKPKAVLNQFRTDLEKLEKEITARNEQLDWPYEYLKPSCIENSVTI

| SMILES | Potency | activity change, negative = inhibition |
| --- | --- | --- |
| COc1ccc(C(CC(=O)Nc2cccc(-c3ccno3)c2)n2cccc2)cc1 (stereo not drawn) | inconclusive: 17.8 µM [inhibitor, full curve, poor fit] | – |
| COc1cc(CN(CCN(C)C)Cc2ccccc2)ccc1OCc1ccccc1 | inconclusive: 2 µM [inhibitor, full curve] | – |
| Cc1c(/C=N/O)c2ccccn2c1C(=O)c1ccc(F)cc1 | inconclusive: 100 µM [inhibitor, single point] | – |
| COc1cccc([C@@H]2CN(CC3CCOCC3)C[C@H]2C(=O)O)c1OC | inconclusive: 5.62 µM [inhibitor, partial curve, poor fit] | – |
| CCN(CC)CCCN1C(=O)C(=O)/C(=C(/O)c2cc(C)ccc2C)C1c1cccnc1 (stereo not drawn) | inconclusive: 39.8 µM [inhibitor, partial curve, poor fit] | – |
| Cc1cnc(C(=O)N2CCC(c3noc(-c4cccnc4)n3)C2)cn1 (stereo not drawn) | – | inactive: 33.7% |
| COc1ccc(C(=O)COC(=O)/C=C/c2ccccc2)c(OC)c1 | inconclusive: 112 µM [inhibitor, single point] | – |
| CN(C)c1ccc(CNc2nc(-c3ccco3)nn2C(=O)c2cccc([N+](=O)[O-])c2)cc1 | inconclusive: 141 µM [inhibitor, single point] | – |
| O=C(Nc1cnc(-c2ccc(Cl)cc2)nc1)c1cccs1 | – | inactive: 10.2% |
| Cc1ccc(C(=O)NC(=S)Nc2ccc(S(=O)(=O)N(C)c3ccccc3)cc2)cc1 | active: 31.6 µM | – |
| O=S(=O)(c1ccccc1)c1nc(-c2ccco2)oc1NCCN1CCOCC1 | inactive | – |
| O=C(c1ccncc1)N1N=C(c2ccc(Cl)cc2)CC1c1ccccc1O (stereo not drawn) | inconclusive: 44.7 µM [inhibitor, partial curve, poor fit] | – |
| CC(=O)NC(NC(=S)Nc1ccccc1Br)C(Cl)(Cl)Cl (stereo not drawn) | inconclusive: 56.2 µM [inhibitor, partial curve, poor fit] | – |
| COC(=O)c1cccc(OCc2ccccc2C#N)c1 | – | inactive: -45.8% |
| CCOCCCNc1oc(-c2cccc3ccccc23)nc1C#N | inconclusive: 22.4 µM [inhibitor, partial curve, poor fit] | – |
| C[N+]1=C(N)NC2=C3CCCCC3n3c(=O)n(-c4ccccc4)c(=O)n3C2C1 (stereo not drawn) | inconclusive: 50.1 µM [inhibitor, single point] | – |
| Cc1cccnc1CNC[C@H]1O[C@@H]2C[C@@H](CC(=O)NC(C)C)O[C@@H]2[C@@H]1O | – | inactive: 108% [at 176 µM] |
| C#CCN(C[C@@H](CC(C)C)NC(=O)OC(C)(C)C)S(=O)(=O)c1ccc(Br)cc1F | inconclusive: 141 µM [inhibitor, single point] | – |
| C/C(=N\NC(=O)CC#N)C1COc2ccccc2O1 (stereo not drawn) | – | inactive: -9.72% |
| CC(=NNC(=S)N1CCCC1)c1ccccn1 | active: 17.8 µM | – |
| COc1ccc(S(=O)(=O)Oc2ccc3c(c2)O/C(=C\c2ccccc2)C3=O)cc1 | – | inactive: -6.51% |
| Cc1ccc(CN2CC34C=CC(O3)C(C(=O)NCc3ccco3)C4C2=O)cc1 (stereo not drawn) | inconclusive: 50.1 µM [inhibitor, partial curve, poor fit] | – |

Two records drawn at random from the list so far:

| SMILES | Potency | activity change, negative = inhibition |
| --- | --- | --- |
| CC(=NNC(=S)N1CCCC1)c1ccccn1 | active: 17.8 µM | – |
| CN(C)c1ccc(CNc2nc(-c3ccco3)nn2C(=O)c2cccc([N+](=O)[O-])c2)cc1 | inconclusive: 141 µM [inhibitor, single point] | – |

(next part)

| SMILES | Potency | activity change, negative = inhibition |
| --- | --- | --- |
| CC1CN(CCCSc2ccc(Cl)cc2)CC(C)O1 (stereo not drawn) | inconclusive: 5.62 µM [inhibitor, full curve] | – |
| CC(C)C(NS(=O)(=O)c1ccccc1)c1cccs1 (stereo not drawn) | – | inactive: -21.9% |
| CNC(=O)C(C)Sc1ccc(S(=O)(=O)N2CCOCC2)cn1 (stereo not drawn) | inconclusive: 112 µM [inhibitor, single point] | – |
| CCOc1ccc(C(=O)NN2C(=S)NC(C)(C)C=C2C)cc1 | inconclusive: 31.6 µM [inhibitor, single point] | – |
| COc1cccc(CN2C(=O)c3ccccc3C2C(=O)NCCc2ccc(OC)c(OC)c2)c1 (stereo not drawn) | inconclusive: 126 µM [inhibitor, partial curve, poor fit] | – |
| CC(C)CC(=O)Nc1ccc(C(=O)OCc2cc(=O)n3nc(C4CCCCC4)sc3n2)cc1 | inconclusive: 100 µM [inhibitor, partial curve, poor fit] | – |
| CCc1nc(C)cn1S(=O)(=O)c1cc(Br)ccc1OC | – | inactive: -1.38% |
| Clc1ccc(C2=NNC(=NCC3CCCO3)SC2)cc1 (stereo not drawn) | inconclusive: 39.8 µM [inhibitor, partial curve, poor fit] | – |
| CC(=O)c1cccc(NC(=O)Cn2ccn3nc(-c4ccccc4)c(CO)c3c2=O)c1 | – | inactive: 13.2% |
| O=C(NCc1cccnc1)c1ccc(-c2ccccc2)cc1 | – | inactive: 13.9% |
| CC(=O)Nc1cccc(-c2ccnc3c2CC(C(=O)Nc2cccc(Oc4ccccc4)c2)O3)c1 (stereo not drawn) | inconclusive: 112 µM [inhibitor, single point] | – |
| CCc1cc(C(=O)Cc2cnn(-c3ccccc3)c2)c(O)cc1O | inconclusive: 31.6 µM [inhibitor, partial curve, poor fit] | – |
| CN(C)C(=O)CN1CCN(C(C(=O)O)c2cn(C)c3cc(C(=O)O)ccc23)CC1 (stereo not drawn) | inconclusive: 112 µM [inhibitor, partial curve, poor fit] | – |
| COCCCn1c(=N)c(C(=O)NC2CCCC2)cc2c(=O)n3ccccc3nc21 | inconclusive: 44.7 µM [inhibitor, partial curve, poor fit] | – |
| Cc1cccc(NC(=O)C2CCN(c3nccc(C)n3)CC2)c1 | inconclusive: 89.1 µM [inhibitor, single point] | – |
| COC(=O)c1ccccc1S(=O)(=O)NC(=O)[C@H]1O[C@@H](n2ccc(=O)[nH]c2=O)[C@H](O)[C@@H]1O | inconclusive: 31.6 µM [inhibitor, partial curve] | – |
| CCOC(=O)c1sc2nc(SCC#N)n(CCCN3CCCC3=O)c(=O)c2c1C | inconclusive: 89.1 µM [inhibitor, single point] | – |
| COc1ccccc1C=NN1CCCCCC1 | inconclusive: 79.4 µM [inhibitor, single point] | – |
| O=C(c1ccc(Cl)cc1)N1CCN(c2ccc(F)cc2)CC1 | inconclusive: 44.7 µM [inhibitor, partial curve, poor fit] | – |
| O=C(Nc1nnc(COc2ccc(Cl)cc2)s1)c1ccco1 | active: 44.7 µM | – |
| COC(=O)NC(=S)Nc1ccc(Oc2ccc(Cl)cc2Cl)c(Cl)c1 | inconclusive: 126 µM [inhibitor, single point] | – |

— PubChem BioAssay AID1671190 (National Center for Advancing Translational Sciences (NCATS), 2021)
